Laboratory results as given in PubChem BioAssay AID540276 (National Center for Advancing Translational Sciences (NCATS), 2011).
Out of some 300,000 compounds screened, about 5,400 (1.8%) were called active. The inconclusive results got no clear call from the source; some entries with a clear call stand among them for comparison. Calls follow the shape of the full dose curve; tested in HEK293 cells. Potencies of inconclusive entries are doubtful fits and often do not repeat.
Potency is read from the fitted curve at half-maximal effect.

Test: qHTS for inhibitors of binding or entry into cells for Marburg Virus
Settings: Marburg virus pseudotyped entry inhibition, cell reporter; series mostly up to 37.8 µM
In the case of `CCCN(CC(=O)Nc1cc(C)on1)CC(=O)Nc1ccc(F)c(F)c1F`, the Potency is reported as “inactive”. With `Nc1c(C(=O)NCc2ccco2)c2nc3ccccc3nc2n1Cc1ccc(F)cc1` the Potency was inconclusive: 35.5 µM [inhibitor, partial curve, poor fit]. For `Cc1ccc(C(=O)/C=C/c2cn(CN3CCN(C)CC3)c3ccccc23)cc1`, the Potency was inconclusive: 29.1 µM [inhibitor, single point]. With `Cn1nc(C(F)(F)F)c(-c2ccc(Br)cc2)c1NC(=O)Nc1ccc(F)cc1F` the Potency was inconclusive: 17.8 µM [inhibitor, partial curve, poor fit]. For `COc1ccc(/C=N/Nc2c(Cl)cc(Cl)cc2Cl)cc1CN1CCOCC1`, the Potency was inconclusive: 2.24 µM [activator, partial curve, poor fit]. In the case of `CC(=O)[C@]12[C@H](c3ccccc3)[C@@H]3CCN(C(=O)N[C@H]1c1ccccc1)[C@@]32C`, the Potency is reported as inconclusive: 0.0067 µM [activator, full curve, poor fit]. With `Cc1cccc(C)c1NC(=S)N/N=C/c1ccc(OCCC(C)C)cc1` the Potency was inconclusive: 20.6 µM [inhibitor, single point]. With `COc1ccccc1-c1n[nH]c2c1[C@H](C)CC[C@H]2C(C)C` the Potency was inconclusive: 1.26 µM [inhibitor, partial curve, poor fit]. With `O=C(NCc1ccc2c(c1)OCO2)C1CCCN(S(=O)(=O)c2cccc3nonc23)C1` (configuration not stated) the Potency was inconclusive: 1.78 µM [activator, partial curve, poor fit]. In the case of `Cc1ccc(-c2cc(C(=O)Oc3ccccc3)c3cc(C)ccc3n2)cc1`, the Potency is reported as “inactive”. For `CNC(=O)Oc1ccc(-c2cn3cc(C)ccc3n2)cc1`, the Potency was active: 0.651 µM. For `CCSc1nc(CC)c2c(c1C#N)CCCC2`, the Potency was inconclusive: 2.82 µM [activator, single point]. For `CN(C)CCCNC(=O)c1ccc(Cl)c(S(=O)(=O)N(C)c2ccccc2)c1`, the Potency was inconclusive: 29.1 µM [inhibitor, single point]. In the case of `CCOC(=O)c1c(NC(=O)c2cccs2)sc(CC)c1-c1cccs1`, the Potency is reported as inconclusive: 10.3 µM [inhibitor, partial curve, poor fit]. For `O=c1c2ccccc2nc(COc2ccccc2)n1/N=C/c1cn[nH]c1-c1ccccc1`, the Potency was inconclusive: 7.94 µM [inhibitor, partial curve, poor fit]. For `O=C(/C=C/c1ccccc1)NC(=O)c1ccccc1O`, the Potency was “inactive”. In the case of `CC(C)n1c(=O)c(C=Nc2ccc(S(N)(=O)=O)cc2)c(O)n(Cc2ccco2)c1=O`, the Potency is reported as “inactive”. With `COc1cc(NC(=O)c2cccs2)c(OC)cc1NC(=O)CCC(=O)Nc1ccc(C)cc1` the Potency was inconclusive: 16.4 µM [inhibitor, single point]. For `O=C(O)c1cn(C2CC2)c2cc(N3CCN(S(=O)(=O)c4ccc5c(c4)OCCO5)CC3)c(F)cc2c1=O`, the Potency was inconclusive: 22.4 µM [inhibitor, single point]. With `N#CC1C(=O)NC(=O)CC12CCCCC2` (configuration not stated) the Potency was “inactive”. In the case of `CCCNS(=O)(=O)/C=C/c1ccccc1`, the Potency is reported as “inactive”. With `COCCCNC(=O)CSc1nc2c(sc3ccccc32)c(=O)n1CCCC(=O)NCCOC` the Potency was “inactive”. In the case of `c1ccc2c(c1)CSc1sccc1C2=C1CCNCC1`, the Potency is reported as active: 6.51 µM. In the case of `CC12CCC(=O)N1C(C(=O)N1CCN(S(=O)(=O)c3ccc(Br)cc3Cl)CC1)CS2` (configuration not stated), the Potency is reported as “inactive”. In the case of `Nn1c(SCC(=O)Nc2ccc3c(c2)OCO3)nnc1-c1ccccc1`, the Potency is reported as inconclusive: 0.259 µM [activator, single point]. In the case of `Cc1ccc(CNC(=O)CCNC(=O)Cn2ccc3ccccc3c2=O)cc1`, the Potency is reported as inconclusive: 0.184 µM [inhibitor, full curve, poor fit]. With `Cc1cc(-n2c(C)cc(C(=O)CN3C(=O)NC4(CCCCC4)C3=O)c2C)no1` the Potency was inconclusive: 12.6 µM [activator, single point]. With `COC(=O)c1cnn(-c2nc(-c3ccccc3)cs2)c1N` the Potency was inconclusive: 1.78 µM [activator, partial curve, poor fit]. For `COc1cccc(C2C(C(=O)Nc3cccnc3)=C(C)Nc3nnnn32)c1OC` (configuration not stated), the Potency was inconclusive: 4.11 µM [inhibitor, partial curve, poor fit]. For `COC(=O)C1=C(CN2CCc3ccccc32)NC(=O)NC1c1cc(C)ccc1C` (configuration not stated), the Potency was “inactive”. With `c1cncc(-c2nc3ccccc3o2)c1` the Potency was “inactive”. With `CCOC(=O)c1ccc2c(c1)n(CC)c(C)[n+]2CC` the Potency was “inactive”. In the case of `Cc1cc(C)c(NC(=O)Nc2ccc3snnc3c2)c(C)c1`, the Potency is reported as inconclusive: 0.316 µM [inhibitor, full curve, poor fit]. With `Cc1cccc2nc(-c3cccc(NS(=O)(=O)c4ccccc4)c3)cn12` the Potency was “inactive”. With `Cc1ccc(C)c(CSc2nc3ccncc3n2CC(=O)Nc2ccc(N(C)C)cc2)c1` the Potency was “inactive”. With `CN(c1ccc(F)cc1)S(=O)(=O)c1ccc(Cl)c(C(=O)NCC(c2ccco2)N2CCCCC2)c1` (configuration not stated) the Potency was inconclusive: 11.2 µM [inhibitor, partial curve, poor fit]. In the case of `COc1ccc(S(=O)(=O)NCC2CCCO2)c(Cl)c1Cl` (configuration not stated), the Potency is reported as inconclusive: 0.112 µM [inhibitor, full curve, poor fit]. For `COc1ccccc1N1CCN(C2CCCN(C(=O)CCC(=O)N(C)C)C2)CC1` (configuration not stated), the Potency was “inactive”. For `CC1(C)Cc2c(cnn2-c2cccc(F)c2)C(NC(=O)c2csnn2)C1` (configuration not stated), the Potency was inconclusive: 6.31 µM [inhibitor, single point]. In the case of `COc1ccc2[nH]c(C(=O)Nc3cccc(C)n3)cc2c1`, the Potency is reported as inconclusive: 10 µM [inhibitor, partial curve, poor fit]. For `Cc1ccc(NC(=O)c2cc(S(=O)(=O)N3CCCCC3)ccc2N2CCOCC2)cc1F`, the Potency was inconclusive: 23.1 µM [inhibitor, single point]. In the case of `Cc1ccc(NC(=O)C2CCN(c3cc(C)nc4c(-c5ccc(Cl)cc5)c(C)nn34)CC2)c(C)c1`, the Potency is reported as inconclusive: 6.31 µM [activator, single point]. For `COc1cc(CCC(=O)NCCc2ccc(F)cc2)cc(OC)c1OC`, the Potency was “inactive”. For `O=C(CSc1ccccc1)Nc1ccc(N2CCN(c3ccccc3)CC2)c(F)c1`, the Potency was “inactive”. In the case of `Brc1ccc(/C=N/Nc2ccc3ccccc3n2)cc1`, the Potency is reported as “inactive”. In the case of `O=C(CSc1ccccc1)Nc1ccc(-c2nc3ccccc3[nH]2)cc1`, the Potency is reported as inconclusive: 0.501 µM [activator, partial curve, poor fit]. With `O=C1CC(=C(c2ccccc2)c2ccccc2)C(=O)N1CCCN1CCN(c2cccc(Cl)c2)CC1` the Potency was inconclusive: 35.5 µM [inhibitor, single point]. In the case of `CCN1CCN(P2(=O)C=C(c3ccccc3)OC(c3ccccc3)=C2)CC1`, the Potency is reported as inconclusive: 36.6 µM [inhibitor, single point]. For `CN1C(=O)C(O)(CC(=O)c2ccc3c(c2)OCO3)c2ccccc21` (configuration not stated), the Potency was “inactive”. For `COc1ccc(CCNC(=O)c2ccc(CNS(=O)(=O)c3cc(C)ccc3C)cc2)cc1OC`, the Potency was active: 10 µM. For `COc1ccc(NC(=O)C2=C(C)Nc3ncnn3C2c2ccccc2C(F)(F)F)c(OC)c1` (configuration not stated), the Potency was inconclusive: 3.16 µM [inhibitor, full curve]. With `O=C(c1cnn2c(C(F)(F)F)cc(-c3ccc(F)cc3)nc12)N1CCc2ccccc2C1` the Potency was inconclusive: 20 µM [inhibitor, partial curve, poor fit]. For `O=C(O)c1ccccc1Nc1ccc([N+](=O)[O-])c2nonc12`, the Potency was inconclusive: 0.794 µM [activator, full curve, poor fit]. In the case of `Cc1cccc(NC(=O)NC(=O)c2ccccc2)n1`, the Potency is reported as inconclusive: 1 µM [inhibitor, single point]. For `CCN(CC)C(=O)c1sc(NC(=O)Cc2ccccc2)c(C#N)c1C`, the Potency was “inactive”. For `COc1ccc(C(=O)N2CCCc3ccccc32)cc1`, the Potency was “inactive”. In the case of `Cc1ccc2c(c1)C(c1ccc(F)cc1)N(C(=O)c1ccc(OC(C)C)cc1)CC(=O)N2` (configuration not stated), the Potency is reported as inconclusive: 35.5 µM [inhibitor, single point]. For `Cn1cc(Br)c(C(=O)NNC(=O)c2cccc(Br)c2)n1`, the Potency was “inactive”. With `COc1cccc(/C=N/NC(N)=S)c1OCc1ccccc1Cl` the Potency was inconclusive: 35.5 µM [inhibitor, single point]. With `C=CCSc1nc2ccccc2n1C(=O)/C=C/c1ccc(OC)c(OC)c1` the Potency was inconclusive: 23.1 µM [inhibitor, partial curve, poor fit]. For `COc1cc(C2c3cc(O)c(OC)cc3CC(C(=O)O)C2CO)ccc1O` (configuration not stated), the Potency was inconclusive: 20 µM [activator, partial curve, poor fit]. For `CCCS(=O)(=O)N1CCN(C(=O)c2ccc(-c3ccccc3)cc2)CC1`, the Potency was inconclusive: 35.5 µM [inhibitor, partial curve, poor fit]. In the case of `COc1ccccc1C(=O)OCC(=O)NC(=O)NC1CCCCC1`, the Potency is reported as inconclusive: 6.31 µM [inhibitor, single point]. With `COc1ccccc1-c1noc(CCCC(=O)NC2CCCC2)n1` the Potency was inconclusive: 25.1 µM [inhibitor, partial curve, poor fit]. With `O=C(Nc1ccn(-c2ccccc2)n1)c1ccc(Cl)cc1` the Potency was inconclusive: 35.5 µM [inhibitor, single point]. With `N#CC1=C(N)OC2=C(C(=O)CCC2)[C@]12C(=O)N(CC(N)=O)c1ccccc12` the Potency was inconclusive: 1.26 µM [inhibitor, partial curve, poor fit]. In the case of `COc1ccc(S(=O)(=O)NCCc2c(C)nn(C)c2Oc2ccccc2)cc1`, the Potency is reported as inconclusive: 0.0326 µM [inhibitor, full curve, poor fit].
